In patent publication US5561131A, “Defaunation method” (Mallinckrodt Veterinary, Inc., priority 1991, dated 1996):

Test: Wool growth trial: feed intake
Format: in vivo
Details: sheep, defaunated period, 167 mg/kg
In the case of `Cc1ccc(Nc2nc(Cl)nc(Cl)n2)c(C)c1` [Compound 30, 2,4 dichloro-6-(2,4-dimethylanilino)-s-triazine], the “Feed Intake” value is reported as 1400 g.
For `Cc1ccc(Nc2nc(Cl)nc(Cl)n2)cc1Cl` [Compound 27, 2,4 dichloro-6-(3 chloro-4-methylanilino)-s-triazine], the “Feed Intake” value was 1000 g.
For `Clc1nc(Cl)nc(Nc2ccccc2Cl)n1` [Compound 37, 2,4-dichloro-6-(2-chloroanilino)-1,3,5-triazine], the “Feed Intake” value was 982 g.
